# Source: PubChem BioAssay AID1159524 (National Center for Advancing Translational Sciences (NCATS), 2015)
# Screen size: about 410,000 compounds; about 5,100 (1.2%) were called active. Listed are the inconclusive results; actives and inactives stand elsewhere. Calls come from the whole dose curve; tested in HEK293T cells.
# Assay: High Throughput Screening for Foot and Mouth Disease Virus Antivirals; note: read-out not given here; nearly all actives have a fitted effect of over 45% in size
# Conditions: FMDV antiviral cell-based qHTS
# Potency is the fitted concentration of half-maximal effect.
row,SMILES,Potency
1,CN(C)C(=O)c1c([N+](=O)[O-])cc([N+](=O)[O-])cc1[N+](=O)[O-],inconclusive: 22.4 µM
2,O=[N+]([O-])c1cc([N+](=O)[O-])c(-c2cnn(-c3ccccc3)c2)c([N+](=O)[O-])c1,inconclusive: 15.8 µM
3,CC1CCOC(=O)C=CC=CC(=O)OC2CC3OC4C5OC5(C)CCC4(COC(=O)C1O)C2(C)C31CO1 (stereo not given),inconclusive: 0.501 µM
4,CCc1ccc(OP(C)(=O)N2CCN(c3ccc([N+](=O)[O-])cc3)CC2)cc1 (stereo not given),inconclusive: 22.4 µM
5,O=[N+]([O-])c1ccc2c(c1)C=Nc1ccccc1O2,inconclusive: 31.6 µM
